According to paper PMC8155215, “The splicing factor XAB2 interacts with ERCC1-XPF and XPG for R-loop processing”:
These are yes or no findings as the source states them, for the method shown. Binding seen in cells or lysates may run through a third protein. These calls come from enrichment with a bait or labelling near it, and not all partners need be listed. Where a sequence is shown, tags or fusion partners need not be part of it.

Target: T1, biotin-tagged XAB2 (XPA-binding protein 2) from aviXab2+/+;birA knock-in mice (mouse) (UniProt Q9DCD2)
T1 sequence (chain, biotin on the 15aa Avitag (added in vivo by the BirA ligase)): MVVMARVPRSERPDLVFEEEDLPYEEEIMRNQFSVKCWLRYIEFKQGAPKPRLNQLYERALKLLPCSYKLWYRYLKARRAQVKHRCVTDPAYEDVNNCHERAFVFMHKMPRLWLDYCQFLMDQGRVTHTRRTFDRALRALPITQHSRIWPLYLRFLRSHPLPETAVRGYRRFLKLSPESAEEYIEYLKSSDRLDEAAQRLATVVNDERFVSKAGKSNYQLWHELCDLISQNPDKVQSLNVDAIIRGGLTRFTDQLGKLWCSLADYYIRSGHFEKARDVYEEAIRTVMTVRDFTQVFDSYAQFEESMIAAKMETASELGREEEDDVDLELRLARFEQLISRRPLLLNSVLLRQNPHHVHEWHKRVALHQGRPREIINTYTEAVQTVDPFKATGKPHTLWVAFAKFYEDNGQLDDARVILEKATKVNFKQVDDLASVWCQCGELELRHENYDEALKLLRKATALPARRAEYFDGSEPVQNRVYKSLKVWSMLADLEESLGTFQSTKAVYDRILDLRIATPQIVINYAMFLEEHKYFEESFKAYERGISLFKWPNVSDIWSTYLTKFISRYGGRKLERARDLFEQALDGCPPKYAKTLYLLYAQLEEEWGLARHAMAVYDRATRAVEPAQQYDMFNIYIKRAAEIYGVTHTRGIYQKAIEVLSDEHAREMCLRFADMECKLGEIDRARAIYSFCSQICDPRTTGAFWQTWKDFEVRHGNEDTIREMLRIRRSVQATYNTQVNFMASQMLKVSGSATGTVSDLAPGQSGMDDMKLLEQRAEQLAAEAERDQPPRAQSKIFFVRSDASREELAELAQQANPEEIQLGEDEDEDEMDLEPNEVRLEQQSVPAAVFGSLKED
Test: affinity purification with mass spectrometry; bXAB2 captured on M-280 streptavidin beads from high-salt nuclear extracts of P15 bXAB2 livers treated with benzonase and RNase A; BirA livers as control; three biological replicates, nLC-MS/MS

Binder	binding
SMC1a (protein, UniProt Q9CU62 1-1233) MGFLKLIEIENFKSYKGRQIIGPFQRFTAIIGPNGSGKSNLMDAISFVLGEKTSNLRVKTLRDLIHGAPVGKPAANRAFVSMVYSEEGAEDRTFARVIVGGSSEYKINNKVVQLHEYSEELEKLGILIKARNFLVFQGAVESIAMKNPKERTALFEEISRSGELAQEYDKRKKEMVKAEEDTQFNYHRKKNIAAERKEAKQEKEEADRYQRLKDEVVRAQVQLQLFKLYHNEVEIEKLNKELASKNKEIEKDKKRMDKVEDELKEKKKELGKMMREQQQIEKEIKEKDSELNQKRPQYIKAKENTSHKIKKLEAAKKSLQNAQKHYKKRKGDMDELEKEMLSVEKARQEFEERMEEESQSQGRDLTLEENQVKKYHRLKEEASKRAATLAQELEKFNRDQKADQDRLDLEERKKVETEAKIKQKLREIEENQKRIEKLEEYITTSKQSLEEQKKLEGELTEEVEMAKRRIDEINKELNQVMEQLGDARIDRQESSRQQRKAEIMESIKRLYPGSVYGRLIDLCQPTQKKYQIAVTKVLGKNMDAIIVDSEKTGRDCIQYIKEQRGEPETFLPLDYLEVKPTDEKLRELKGAKLVIDVIRYEPPHIKKALQYACGNALVCDNVEDARRIAFGGHQRHKTVALDGTLFQKSGVISGGASDLKAKARRWDEKAVDKLKEKKERLTEELKEQMKAKRKEAELRQVQSQAHGLQMRLKYSQSDLEQTKTRHLALNLQEKSKLESELANFGPRINDIKRIIQSREREMKDLKEKMNQVEDEVFEEFCREIGVRNIREFEEEKVKRQNEIAKKRLEFENQKTRLGIQLDFEKNQLKEDQDKVHMWEQTVKKDENEIEKLKKEEQRHMKIIDETMAQLQDLKNQHLAKKSEVNDKNHEMEEIRKKLGGANKEMTHLQKEVTAIETKLEQKRSDRHNLLQACKMQDIKLPLSKGTMDDISQEEGSSQGEESVSGSQRTSSIYAREALIEIDYGDLCEDLKDAQAEEEIKQEMNTLQQKLNEQQSVLQRIAAPNMKAMEKLESVRDKFQETSDEFEAARKRAKKAKQAFEQIKKERFDRFNACFESVATNIDEIYKALSRNSSAQAFLGPENPEEPYLDGINYNCVAPGKRFRPMDNLSGGEKTVAALALLFAIHSYKPAPFFVLDEIDAALDNTNIGKVANYIKEQSTCNFQAIVISLKEEFYTKAESLIGVYPEQGDCVISKVLTFDLTKYPDANPNPNEQ	binds
STAG1 (protein, UniProt Q9D3E6 1-1258) MITSELPVLQDSTNETTAHSDAGSELEETEVKGKRKRGRPGRPPSTNKKPRKSPGEKSRIEAGIRGAGRGRANGHPQQNGDGDPVTLFEVVKLGKSAMQSVVDDWIELYKQDRDIALLDLINFFIQCSGCRGTVRIEMFRNMQNAEIIRKMTEEFDEDSGDYPLTMPGPQWKKFRSNFCEFIGVLIRQCQYSIIYDEYMMDTVISLLTGLSDSQVRAFRHTSTLAAMKLMTALVNVALNLSIHQDNTQRQYEAERNKMIGKRANERLELLLQKRKELQENQDEIENMMNSIFKGIFVHRYRDAIAEIRAICIEEIGVWMKMYSDAFLNDSYLKYVGWTLHDRQGEVRLKCLKALQSLYTNRELFPKLELFTNRFKDRIVSMTLDKEYDVAVEAIRLVTLILHGSEEALSNEDCENVYHLVYSAHRPVAVAAGEFLHKKLFSRHDPQAEEALAKRRGRNSPNGNLIRMLVLFFLESELHEHAAYLVDSLWESSQELLKDWECMTELLLEEPVQGEEAMSDRQESALIELMVCTIRQAAEAHPPVGRGTGKRVLTAKERKTQIDDRNKLTEHFIITLPMLLSKYSADAEKVANLLQIPQYFDLEIYSTGRMEKHLDALLKQIKFVVEKHVESDVLEACSKTYSILCSEEYTIQNRVDIARSQLIDEFVDRFNHSVEDLLQEGEEADDDDIYNVLSTLKRLTSFHNAHDLTKWDLFGNCYRLLKTGIEHGAMPEQIVVQALQCSHYSILWQLVKITDGSPSKEDLLVLRKTVKSFLAVCQQCLSNVNTPVKEQAFMLLCDLLMIFSHQLMTGGREGLQPLVFNPDTGLQSELLSFVMDHVFIDQDEENQSMEGDEEDEANKIEALHKRRNLLAAFSKLIIYDIVDMHAAADIFKHYMKYYNDYGDIIKETLSKTRQIDKIQCAKTLILSLQQLFNELVQEQGPNLDRTSAHVSGIKELARRFALTFGLDQIKTREAVATLHKDGIEFAFKYQNQKGQEYPPPNLAFLEVLSEFSSKLLRQDKKTVHSYLEKFLTEQMMERREDVWLPLISYRNSLVTGGEDDRMSVNSGSSSSKTSSVRSKKGRPPLHRKRVEDESLDNTWLNRTDTMIQTPGPLPTPQLTSTVLRENSRPMGEQIQEPESEHGSEPDFLHNPQMQISWLGQPKLEDLNRKDRTGMNYMKVRAGVRHAVRGLMEEDAEPIFEDVMMSSRSQLEDMNEEFEDTMVIDLPPSRNRRERAELRPDFFDSAAIIEDDSGFGMPMF	binds
STAG2 (protein, UniProt O35638 1-1231) MIAAPEIPTDFNLLQESETHFSSDTDFEDIEGKNQKQGKGKTCKKGKKGPAEKGKSGNGGGKPPSGSNRMNGHHQQNGVENMMLFEVVKMGKSAMQSVVDDWIESYKHDRDIALLDLINFFIQCSGCKGVVTAEMFRHMQNSEIIRKMTEEFDEDSGDYPLTMAGPQWKKFKSSFCEFIGVLVRQCQYSIIYDEYMMDTVISLLTGLSDSQVRAFRHTSTLAAMKLMTALVNVALNLSINMDNTQRQYEAERNKMIGKRANERLELLLQKRKELQENQDEIENMMNAIFKGVFVHRYRDAIAEIRAICIEEIGIWMKMYSDAFLNDSYLKYVGWTMHDKQGEVRLKCLTALQGLYYNKELNSKLELFTSRFKDRIVSMTLDKEYDVAVQAIKLLTLVLQSSEEVLTAEDCENVYHLVYSAHRPVAVAAGEFLYKKLFSRRDPEEDGLMKRRGRQGPNANLVKTLVFFFLESELHEHAAYLVDSMWDCATELLKDWECMNSLLLEEPLSGEEALTDRQESALIEIMLCTIRQAAECHPPVGRGTGKRVLTAKEKKTQLDDRTRITELFAVALPQLLAKYSVDAEKVTNLLQLPQYFDLEIYTTGRLEKHLDALLRQIRNIVEKHTDTDVLEACSKTYHALCNEEFTIFNRVDISRSQLIDELADKFNRLLEDFLQEGEEPDEDDAYQVLSTLKRITAFHNAHDLSKWDLFACNYKLLKTGIENGDMPEQIVIHALQCAHYVILWQLAKITESTSTKEDLLRLKKQMRVFCQICQHYLTNVNTTVKEQAFTILCDILMIFSHQIMSGGRDMLEPLVYTPDSSLQSELLSFILDHVFIEQDDDSNSADGQQEDEASKIEALHKRRNLLAAFCKLIVYTVVEMNTAADIFKQYMKYYNDYGDIIKETMSKTRQIDKIQCAKTLILSLQQLFNEMIQENGYNFDRSSSTFSGIKELARRFALTFGLDQLKTREAIAMLHKDGIEFAFKEPNPQGESHPPLNLAFLDILSEFSSKLLRQDKRTVYVYLEKFMTFQMSLRREDVWLPLMSYRNSLLAGGDDDTMSVISGMSSRGSTVRSKKSKPSTGKRKVVEGMQLALPEESSSSDSMWLSREQTLHTPVMMQTPQLTSTIMREPKRLRPEDSFMSVYPMQAEHHQTPLDYNRRGTSLMEDDEEPIVEDVMMSSEGRIEDLNEGMDFDTMDIDLPPSKNRRERTELKPDFFDPASIMDESVLGVSMF	binds
GNL3 (protein, UniProt Q8CI11 1-538) MKRPKLKKASKRMTCHKRYKIQKKVREHHRKLRKEAKKRGHKKPRKDPGVPNSAPFKEALLREAELRKQQLEELKQQQKLDRQKEQERKRKLEVSPGDEQSNVETREESDEPKRKKAKAGKQNPKKLHCQELKKVIEASDIVLEVLDARDPLGCRCPQIEEAVIQSGSKKLILVLNKSDLVPKENLENWLNYLNKELPTVVFKASTNLKNRKTFKIKKKKVVPFQSKICCGKEALWKLLGDFQQSCGKDIQVGVIGFPNVGKSSVINSLKQEWICNVGISMGLTRSMQIVPLDKQITIIDSPCLIISPCNSPTALALRSPASIEELRPLEAASAILSQADNEQVVLKYTVPEYKDSLHFFTKLAQRRGLHQKGGSPNVESAAKLVWSEWTGASLGYYCHPPASWNHSLHFNENIAAVMKKGFNLEELEKNNAHSIQVLKGPHLTNRILFRSSGLTNGILDEKDIVEESPRQTEDKQDADDQENGSGERNAEISDVAPVEETRELSPEQSTAGKPSDGSSALDRASQEDETYDFTTDYI	binds
NOP58 (protein, UniProt Q6DFW4 1-536) MLVLFETSVGYAIFKVLNEKKLQEVDSLWKEFETPEKANKIVKLKHFEKFQDTAEALAAFTALMEGKINKQLKKVLKKIVKEAHEPLAVADAKLGGVIKEKLNLSCIHSPVVNELMRGIRSQMDGLIPGVEPREMAAMCLGLAHSLSRYRLKFSADKVDTMIVQAISLLDDLDKELNNYIMRCREWYGWHFPELGKIISDNLTYCKCLQKVGDRKNYASASLSEFLSEEVEAEVKAAAEISMGTEVSEEDICNILHLCTQVIEISEYRTQLYEYLQNRMMAIAPNVTVMVGELVGARLIAHAGSLLNLAKHAASTVQILGAEKALFRALKSRRDTPKYGLIYHASLVGQSSPKHKGKISRMLAAKTVLAIRYDAFGEDSSSAMGIENRAKLEARLRILEDRGIRKISGTGKALAKAEKYEHKSEVKTYDPSGDSTLPTCSKKRKIEEVDKEDEITEKKAKKAKIKIKAEVEEEMEEEEAEEEQVVEEEPTVKKKKKKDKKKHIKEEPLSEEEPCTSTAVPSPEKKKKKKKKKDAED	binds
UTP15 (protein, UniProt Q8C7V3 1-528) MAGYKPVAIQTYPVLGEKITQDTLYWNNYKTPVQIKEFGAVSKVDFSPQLPYNYAVTASSRIHIYGRYSQEPVKTFSRFKDTAYCATFRQDGQLLVAGSEDGVVQLFDINGRAPLRQFEGHTKAVHTVDFTADNYHVVSGADDYTVKLWDIPNSKEILTFKEHSDYVRCGCASKLNPDLFVTGSYDHTVKIFDARTNKNVLCVEHGQPVESVLLFPSGGLLVSAGGRYVKVWDMLKGGQLLVSLKNHHKTVTCLCLSSSGQRLLSGSLDRKVKVYSTTSYKVVHSFDYAASILSLALSHQDETIVVGMTNGILSVKHRKSEAKKTSLPRRRRPAYRTFIKGKNYLKQRDDIMVSRPAKKHLEGYDKDLKSFRVSQALDRVLEPKCVIRTPEVTVSIIKELTRRGVLANALAGRDEKEVTRVLNFLIRNLSQPRFAPVLINAAEIIIDIYLPVIGQSSVVDKKFIVLQELVEKEIDYQRELLETLGMMDMLFATMTRNDSDPVPEHVPAELPEEKTESPTQPSDTDKNS	binds
